Assay: general procedure: Fmoc solid-phase peptide synthesis; Fmoc-Cys(Trt)-Wang resin (Novabiochem)
Conditions: conjugation step

**Q.** Which conjugation yield does the source give for H-DYKDDDDKC-OH here?
**A.** 49%

Source: patent publication US10434111B2 (THE REGENTS OF THE UNIVERSITY OF CALIFORNIA, priority 2004, dated 2019)
